Measured values taken from article doi:10.1101/715409 (bioRxiv, 2019).
Results are given in words; binding and its absence hold for the method and conditions named. Binding seen in cells or lysates may run through a third protein. Some binding calls cover weakened binding; strength is not graded here. Tags and fused reporters may be left off the sequences shown.

T1: Boi1_(Δ86-178)CRU (Saccharomyces cerevisiae) (UniProt P38041)
T1 sequence: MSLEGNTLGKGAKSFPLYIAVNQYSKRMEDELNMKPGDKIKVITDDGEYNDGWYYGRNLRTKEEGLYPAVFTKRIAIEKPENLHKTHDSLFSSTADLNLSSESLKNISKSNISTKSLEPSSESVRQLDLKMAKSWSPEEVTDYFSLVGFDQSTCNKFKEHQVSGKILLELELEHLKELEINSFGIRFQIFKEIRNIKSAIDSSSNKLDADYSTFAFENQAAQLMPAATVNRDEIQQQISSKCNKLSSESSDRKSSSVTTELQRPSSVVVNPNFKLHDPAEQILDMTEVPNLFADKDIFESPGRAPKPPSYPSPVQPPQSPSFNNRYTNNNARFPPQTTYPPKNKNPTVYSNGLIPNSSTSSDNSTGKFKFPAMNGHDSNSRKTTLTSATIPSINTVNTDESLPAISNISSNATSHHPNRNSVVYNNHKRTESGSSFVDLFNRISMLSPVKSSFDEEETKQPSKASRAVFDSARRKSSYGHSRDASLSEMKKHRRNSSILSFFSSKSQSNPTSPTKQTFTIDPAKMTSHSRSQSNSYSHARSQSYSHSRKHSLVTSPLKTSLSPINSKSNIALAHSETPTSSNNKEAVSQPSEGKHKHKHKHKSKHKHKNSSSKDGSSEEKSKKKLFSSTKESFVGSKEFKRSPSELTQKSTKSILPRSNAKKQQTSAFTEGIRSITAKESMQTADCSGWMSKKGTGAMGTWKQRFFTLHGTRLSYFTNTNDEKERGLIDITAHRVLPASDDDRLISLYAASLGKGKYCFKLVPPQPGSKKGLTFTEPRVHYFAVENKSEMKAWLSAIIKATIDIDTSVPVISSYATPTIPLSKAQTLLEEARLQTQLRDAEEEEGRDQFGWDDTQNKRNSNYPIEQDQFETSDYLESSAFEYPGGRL

T2: Boi1CRU (Saccharomyces cerevisiae) (UniProt P38041)
T2 sequence: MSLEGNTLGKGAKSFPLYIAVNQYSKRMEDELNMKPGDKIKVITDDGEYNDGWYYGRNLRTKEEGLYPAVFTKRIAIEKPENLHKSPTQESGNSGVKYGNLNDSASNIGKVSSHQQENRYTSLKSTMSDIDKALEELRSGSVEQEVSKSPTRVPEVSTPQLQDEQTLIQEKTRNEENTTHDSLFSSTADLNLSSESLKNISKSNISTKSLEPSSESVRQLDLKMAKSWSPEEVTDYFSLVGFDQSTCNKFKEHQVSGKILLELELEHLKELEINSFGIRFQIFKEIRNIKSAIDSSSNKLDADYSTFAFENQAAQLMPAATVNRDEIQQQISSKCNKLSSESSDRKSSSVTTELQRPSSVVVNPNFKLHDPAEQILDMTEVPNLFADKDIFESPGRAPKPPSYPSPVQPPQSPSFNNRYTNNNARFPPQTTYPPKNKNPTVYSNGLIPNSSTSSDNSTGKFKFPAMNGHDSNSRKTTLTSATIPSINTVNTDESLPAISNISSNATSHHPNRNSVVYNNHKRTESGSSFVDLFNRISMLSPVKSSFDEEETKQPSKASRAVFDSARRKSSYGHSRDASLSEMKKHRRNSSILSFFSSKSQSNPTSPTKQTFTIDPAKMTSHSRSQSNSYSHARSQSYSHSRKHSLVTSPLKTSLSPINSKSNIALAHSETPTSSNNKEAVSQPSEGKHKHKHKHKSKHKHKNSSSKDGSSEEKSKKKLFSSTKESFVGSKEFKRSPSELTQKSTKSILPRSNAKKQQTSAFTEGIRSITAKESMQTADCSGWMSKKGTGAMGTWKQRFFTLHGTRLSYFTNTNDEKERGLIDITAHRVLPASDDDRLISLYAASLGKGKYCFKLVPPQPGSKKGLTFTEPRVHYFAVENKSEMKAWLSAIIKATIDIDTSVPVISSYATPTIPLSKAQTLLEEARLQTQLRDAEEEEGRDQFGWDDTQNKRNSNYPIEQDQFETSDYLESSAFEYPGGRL


Key:
[1] = molecular target: T1, Boi1_(Δ86-178)CRU (Saccharomyces cerevisiae); test: split reporter
[2] = molecular target: T2, Boi1CRU (Saccharomyces cerevisiae); test: split reporter

binding [1]	binding [2]	Binder
binds	binds	Nub-Bem1 (protein, UniProt P29366 1-551) MLKNFKLSKRDSNGSKGRITSADISTPSHDNGSVIKHIKTVPVRYLSSSSTPVKSQRDSSPKNRHNSKDITSPEKVIKAKYSYQAQTSKELSFMEGEFFYVSGDEKDWYKASNPSTGKEGVVPKTYFEVFDRTKPSSVNGSNSSSRKVTNDSLNMGSLYAIVLYDFKAEKADELTTYVGENLFICAHHNCEWFIAKPIGRLGGPGLVPVGFVSIIDIATGYATGNDVIEDIKSVNLPTVQEWKSNIARYKASNISLGSVEQQQQQSITKPQNKSAKLVDGELLVKASVESFGLEDEKYWFLVCCELSNGKTRQLKRYYQDFYDLQVQLLDAFPAEAGKLRDAGGQWSKRIMPYIPGPVPYVTNSITKKRKEDLNIYVADLVNLPDYISRSEMVHSLFVVLNNGFDREFERDENQNNIKTLQENDTATFATASQTSNFASTNQDNTLTGEDLKLNKKLSDLSLSGSKQAPAQSTSGLKTTKIKFYYKDDIFALMLKGDTTYKELRSKIAPRIDTDNFKLQTKLFDGSGEEIKTDSQVSNIIQAKLKISVHDI
no binding	binds	Nub-Bud6 (protein, UniProt P41697 1-788) MKMAVDDPTYGTPKIKRTASSSSSIETTVTKLLMSTKHLLQVLTQWSKGTTSGRLVSDAYVQLGNDFKVVSKFFMHAKVDMSDVGDVPMALRRVLEVTLREPPSDETLNKHLPKIREIIVTLLDKLKVKQAILKNMQQEHRISVKSHHQQNPSFTSNLSLGSEGTREGTPLSSRKSSIVRDQRQSDSVENSYGEKVNSTSTGTPSAQSAEATLTKPRTNIKQNLKSNNAPNASDDDDALSQLKKGTNLQRRASKRYSAYHMAKLTNQSTTEAAAAAGLMTTPSPSMLHLEETVRKSKLYGNNNNDDDRNINSAENKGKSIDDVSKASPLAKTPLPIENVRASPRRLSSVVTTSPDKAMNGTCPVFLRIGDKTKKCHVQLPTTKNALRLLFIERFAYSPGANSFPDIYIMDPQYGVFYELEELNLLDIKEGFVIELKLEENPNNTIKEFIDTVKMEISNSQNDIIRHLKEMSFGSAISGKQTEVLPQPGLEANKHDLVGQNKKDDDKTIKDIQYELGKIKQVHNINRSNINETIFNILRKVDNFKSLSFSAKNSSNRMYMEKSQTELGDLSDTLLSKVDDLQDVIEIMRKDVAERRSQPAKKKLETVSKDLENAQADVLKLQEFIDTEKPHWKKTWEAELDKVCEEQQFLTLQEELILDLKEDLGKALETFDLIKLCCEEQEKNPSRSKSNPILPIMRPGTFNQVREQVMVAVQSLNPDHDSRVEAIDKAEKMWEMERKLKASNEFDDELENFVGNSNLKKSGGFEEVERIRKQKDEANLRAYFGPGFT
